Laboratory results from US8911952B2, “Method for integrin ligand discovery” (STC. UNM, priority 2010, dated 2014).
At least one structure is not confirmed: it was looked up by name or label, or the drawing left a doubt.

The chains behind the UniProt entries cited, without tags or fusion partners. Residues count along the entry.
UniProt P13612, 34-1032: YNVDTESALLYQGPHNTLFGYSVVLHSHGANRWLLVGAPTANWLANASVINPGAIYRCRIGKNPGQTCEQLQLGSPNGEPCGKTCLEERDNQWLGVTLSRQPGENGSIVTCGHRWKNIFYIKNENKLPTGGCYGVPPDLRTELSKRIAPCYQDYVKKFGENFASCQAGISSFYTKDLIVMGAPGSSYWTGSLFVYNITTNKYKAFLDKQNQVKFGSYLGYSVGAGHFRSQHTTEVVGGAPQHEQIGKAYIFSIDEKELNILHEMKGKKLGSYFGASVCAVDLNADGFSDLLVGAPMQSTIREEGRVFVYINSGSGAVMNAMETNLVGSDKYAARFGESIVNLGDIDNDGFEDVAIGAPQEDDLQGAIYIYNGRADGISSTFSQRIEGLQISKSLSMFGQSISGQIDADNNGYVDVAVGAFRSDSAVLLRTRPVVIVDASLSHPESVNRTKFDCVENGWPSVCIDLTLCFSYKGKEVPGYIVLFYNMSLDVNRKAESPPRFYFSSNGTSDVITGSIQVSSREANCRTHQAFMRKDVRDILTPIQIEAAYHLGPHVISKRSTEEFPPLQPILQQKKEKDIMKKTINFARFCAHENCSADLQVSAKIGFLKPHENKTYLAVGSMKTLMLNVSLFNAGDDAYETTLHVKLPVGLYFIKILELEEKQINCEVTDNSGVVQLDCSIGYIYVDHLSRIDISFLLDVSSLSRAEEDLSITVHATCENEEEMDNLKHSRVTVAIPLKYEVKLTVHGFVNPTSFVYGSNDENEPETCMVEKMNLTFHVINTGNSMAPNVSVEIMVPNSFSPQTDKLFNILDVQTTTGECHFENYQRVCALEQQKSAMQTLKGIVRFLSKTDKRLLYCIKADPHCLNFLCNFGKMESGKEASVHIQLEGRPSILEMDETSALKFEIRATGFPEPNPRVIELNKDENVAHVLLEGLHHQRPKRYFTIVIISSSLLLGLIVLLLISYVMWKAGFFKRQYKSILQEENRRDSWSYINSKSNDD

Molecular target: VLA-4 (Homo sapiens, UniProt P05556+P13612)
Assay: Real-time binding and dissociation of VLA-4 specific ligand (LDV-FITC probe) on U937 cells
Conditions: cells washed three times, LDV-FITC added again

## C=C[C@@]1(C)CC(=O)[C@]2(O)[C@@]3(C)[C@@H](O)CCC(C)(C)[C@@H]3[C@H](O)[C@H](OC(C)=O)[C@@]2(C)O1 [forskolin]
  reversibility of the impact on LDV-FITC binding: slow and irreversible
